We go through two substances from article PMC6562232.

Chains of the proteins cited; added tags and fusions are not shown. Lines headed by an entry give the natural chain unless they say otherwise; changes in a name come on top.
UniProt A8BFK8: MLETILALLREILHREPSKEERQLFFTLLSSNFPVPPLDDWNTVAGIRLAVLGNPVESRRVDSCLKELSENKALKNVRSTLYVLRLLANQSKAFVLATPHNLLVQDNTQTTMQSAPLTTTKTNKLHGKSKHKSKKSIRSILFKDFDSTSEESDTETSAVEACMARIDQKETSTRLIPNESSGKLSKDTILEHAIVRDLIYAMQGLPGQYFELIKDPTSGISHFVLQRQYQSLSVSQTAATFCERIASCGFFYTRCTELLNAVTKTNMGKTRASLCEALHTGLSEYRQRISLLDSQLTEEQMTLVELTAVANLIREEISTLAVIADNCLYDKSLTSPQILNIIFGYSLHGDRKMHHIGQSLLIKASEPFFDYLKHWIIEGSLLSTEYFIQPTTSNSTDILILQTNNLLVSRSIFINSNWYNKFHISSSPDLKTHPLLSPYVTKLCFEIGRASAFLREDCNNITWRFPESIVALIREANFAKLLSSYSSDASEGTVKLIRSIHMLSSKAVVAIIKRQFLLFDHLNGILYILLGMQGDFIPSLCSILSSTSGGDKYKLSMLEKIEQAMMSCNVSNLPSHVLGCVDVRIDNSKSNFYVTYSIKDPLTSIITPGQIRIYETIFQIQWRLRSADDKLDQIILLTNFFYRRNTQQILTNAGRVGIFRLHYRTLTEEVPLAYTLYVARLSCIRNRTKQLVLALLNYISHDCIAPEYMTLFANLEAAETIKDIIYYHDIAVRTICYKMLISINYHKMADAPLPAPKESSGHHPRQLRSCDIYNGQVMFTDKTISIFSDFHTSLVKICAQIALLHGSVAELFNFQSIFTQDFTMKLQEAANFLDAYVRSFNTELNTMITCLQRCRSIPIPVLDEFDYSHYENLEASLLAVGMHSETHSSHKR
UniProt A0A644F7M7: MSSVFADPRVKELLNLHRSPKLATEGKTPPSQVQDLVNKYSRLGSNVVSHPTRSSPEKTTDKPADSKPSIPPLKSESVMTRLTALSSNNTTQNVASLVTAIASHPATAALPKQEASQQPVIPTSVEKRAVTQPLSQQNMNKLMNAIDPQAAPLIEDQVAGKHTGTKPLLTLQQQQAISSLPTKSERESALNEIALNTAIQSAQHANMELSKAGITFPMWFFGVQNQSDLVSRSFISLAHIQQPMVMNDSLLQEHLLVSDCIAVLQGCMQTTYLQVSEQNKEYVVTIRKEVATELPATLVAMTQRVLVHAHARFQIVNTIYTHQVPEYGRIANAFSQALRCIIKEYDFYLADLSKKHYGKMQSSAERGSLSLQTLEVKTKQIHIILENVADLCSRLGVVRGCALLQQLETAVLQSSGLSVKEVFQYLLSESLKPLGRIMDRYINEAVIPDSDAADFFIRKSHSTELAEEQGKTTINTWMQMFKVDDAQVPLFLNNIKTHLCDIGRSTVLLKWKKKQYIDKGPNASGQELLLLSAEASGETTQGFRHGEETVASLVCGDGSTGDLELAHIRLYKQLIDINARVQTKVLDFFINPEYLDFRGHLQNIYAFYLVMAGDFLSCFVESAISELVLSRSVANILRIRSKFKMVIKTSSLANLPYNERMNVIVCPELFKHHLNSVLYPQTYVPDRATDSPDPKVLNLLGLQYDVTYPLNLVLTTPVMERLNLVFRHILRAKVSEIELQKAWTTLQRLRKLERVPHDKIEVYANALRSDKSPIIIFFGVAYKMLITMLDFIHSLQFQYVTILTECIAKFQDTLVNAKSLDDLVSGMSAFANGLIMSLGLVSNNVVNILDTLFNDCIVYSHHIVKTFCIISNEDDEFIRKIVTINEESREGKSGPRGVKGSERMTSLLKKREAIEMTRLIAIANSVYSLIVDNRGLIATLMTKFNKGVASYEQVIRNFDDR

For this experiment, the target named is HA-tagged Glγ-tubulin expressed in transgenic G. lamblia (pGlγ-tubulinHAX3.pac) (Giardia lamblia). The experiment can be described thus: co-IP; lysates of G. lamblia expressing HA-tagged Glγ-tubulin (50 mM Tris-HCl pH 7.4, 150 mM NaCl, called cross-linking buffer), 1 mg lysate with anti-HA agarose beads overnight at 4°C, washed with 1% Triton X-100; western blot; control anti-mouse IgG Sepharose beads.

No constants are given. Whether binding was seen depends on the method and setting. In cells and extracts the contact can be indirect. A result given as binding can be weak or reduced; the word gives no strength.

For “G. lamblia γ-tubulin complex protein 3 (GlGCP3), endogenous (from UniProt A8BFK8)”, the binding result is given as “binds”.

As for “G. lamblia γ-tubulin complex protein 2 (GlGCP2), endogenous (from UniProt A0A644F7M7)”, the binding result was “binds”.
